PubChem BioAssay AID1224830 | NIAID, 2016
Shown is a random part of about 18,000 deposited reagents. Of all reagents, about 2,900 (16%) got an active call. 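Calls are made per well; low scores hint the gene aids the LPS response, high scores that it dampens it.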 Unmarked entries are inactive. Repeated entries: four replicate wells of each siRNA pool.

Assay: 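Genes whose knock-down alters the TNF-alpha reporter response to LPS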 (primary screen)
System: human THP-1 monocytic leukaemia cells, TNF dual-luciferase reporter clone, PMA-differentiated to macrophage-like cells
Reagent: siRNA pool against human genes, 50 nM
Time to read-out: LPS for 4 h, given about 3 days after siRNA transfection
Conditions: bacterial LPS (TLR4 ligand), 10 ng/ml
Measurement: 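TNF firefly reporter luminescence divided by renilla, normalised to the plate median, then turned into a robust z-score for each replicate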
Scale: TNF reporter robust z-score: higher = stronger TNF reporter response to LPS
Hit rule: 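Each well counts as active if its z-score is over 2.8 or under -1.5; controls are left without a call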

gene symbol | TNF reporter robust z-score
PTPN4 (GeneID 5775) | 1.08
PTPN4 (GeneID 5775) | 0.44
PTPN4 (GeneID 5775) | -1.34
PTPN4 (GeneID 5775) | -1
YPEL4 (GeneID 219539) | -0.59
YPEL4 (GeneID 219539) | -0.04
YPEL4 (GeneID 219539) | 1.14
YPEL4 (GeneID 219539) | -1.76 (active)
AKNAD1 (GeneID 254268) | 0.36
AKNAD1 (GeneID 254268) | 1.85
AKNAD1 (GeneID 254268) | 0.7
AKNAD1 (GeneID 254268) | 2.61
TRIM44 (GeneID 54765) | 1.39
TRIM44 (GeneID 54765) | 1.85
TRIM44 (GeneID 54765) | 0.06
TRIM44 (GeneID 54765) | 0.29
GAS2L3 (GeneID 283431) | 0.55
GAS2L3 (GeneID 283431) | -0.09
GAS2L3 (GeneID 283431) | 0.25
GAS2L3 (GeneID 283431) | 0.44
SLC7A8 (GeneID 23428) | 0.92
SLC7A8 (GeneID 23428) | -0.32
SLC7A8 (GeneID 23428) | -0.04
SLC7A8 (GeneID 23428) | 0.89
CYBC1 (GeneID 79415) | -1.41
CYBC1 (GeneID 79415) | -0.29
CYBC1 (GeneID 79415) | -0.9
CYBC1 (GeneID 79415) | -0.55
VPREB3 (GeneID 29802) | 2.73
VPREB3 (GeneID 29802) | 4.27 (active)
VPREB3 (GeneID 29802) | 2.21
VPREB3 (GeneID 29802) | 4.41 (active)
DPT (GeneID 1805) | -0.61
DPT (GeneID 1805) | -0.6
DPT (GeneID 1805) | -1.04
DPT (GeneID 1805) | -0.23
BIRC8 (GeneID 112401) | -1.76 (active)
BIRC8 (GeneID 112401) | -2.07 (active)
BIRC8 (GeneID 112401) | -1.93 (active)
BIRC8 (GeneID 112401) | -0.39
CYP4X1 (GeneID 260293) | 1.41
CYP4X1 (GeneID 260293) | 0.64
CYP4X1 (GeneID 260293) | 1.45
CYP4X1 (GeneID 260293) | 3.51 (active)
NBPF7P (GeneID 343505) | -0.66
NBPF7P (GeneID 343505) | -0.28
NBPF7P (GeneID 343505) | 0.23
NBPF7P (GeneID 343505) | 0.11
DDB1 (GeneID 1642) | -0.06
DDB1 (GeneID 1642) | 0.04
DDB1 (GeneID 1642) | 0.31
DDB1 (GeneID 1642) | 0.26
PPP2R3C (GeneID 55012) | 0.36
PPP2R3C (GeneID 55012) | 0.64
PPP2R3C (GeneID 55012) | 0.74
PPP2R3C (GeneID 55012) | -0.3
SUPT6H (GeneID 6830) | 2.68
SUPT6H (GeneID 6830) | 1.9
SUPT6H (GeneID 6830) | 1.44
SUPT6H (GeneID 6830) | 3.53 (active)
TXLNA (GeneID 200081) | -0.05
TXLNA (GeneID 200081) | 0.96
TXLNA (GeneID 200081) | 0.23
TXLNA (GeneID 200081) | 0.33
PIGN (GeneID 23556) | -0.63
PIGN (GeneID 23556) | -0.87
PIGN (GeneID 23556) | -0.83
PIGN (GeneID 23556) | -0.64
FERD3L (GeneID 222894) | -1.33
FERD3L (GeneID 222894) | -1.13
FERD3L (GeneID 222894) | -1.29
FERD3L (GeneID 222894) | -1.42
FAM50B (GeneID 26240) | -0.51
FAM50B (GeneID 26240) | -0.78
FAM50B (GeneID 26240) | -0.23
FAM50B (GeneID 26240) | -0.38
FOXF1 (GeneID 2294) | -1.25
FOXF1 (GeneID 2294) | -0.75
FOXF1 (GeneID 2294) | -1.52 (active)
FOXF1 (GeneID 2294) | -1.15
PRRG1 (GeneID 5638) | 0.55
PRRG1 (GeneID 5638) | 0.8
PRRG1 (GeneID 5638) | 0.27
PRRG1 (GeneID 5638) | 0.09
SNHG29 (GeneID 125144) | -0.45
SNHG29 (GeneID 125144) | -0.51
SNHG29 (GeneID 125144) | -0.43
SNHG29 (GeneID 125144) | -0.39
TOMM40 (GeneID 10452) | 0.39
TOMM40 (GeneID 10452) | 1.67
TOMM40 (GeneID 10452) | 0.21
OSTCP1 (GeneID 202459) | -0.41
OSTCP1 (GeneID 202459) | -0.19
OSTCP1 (GeneID 202459) | -0.71
OSTCP1 (GeneID 202459) | -0.6
PIK3CB (GeneID 5291) | 8.51 (active)
PIK3CB (GeneID 5291) | 1
PIK3CB (GeneID 5291) | -0.73
PIK3CB (GeneID 5291) | 0.59
ENTR1 (GeneID 10807) | 1.07
ENTR1 (GeneID 10807) | 1.43
ENTR1 (GeneID 10807) | 1.11
ENTR1 (GeneID 10807) | 2.01
CEACAM21 (GeneID 90273) | -0.66
CEACAM21 (GeneID 90273) | -1.54 (active)
CEACAM21 (GeneID 90273) | -0.63
CEACAM21 (GeneID 90273) | -0.67
PLCB4 (GeneID 5332) | -1.23
PLCB4 (GeneID 5332) | -1.4
PLCB4 (GeneID 5332) | -1.64 (active)
PLCB4 (GeneID 5332) | -1.19
